According to article doi:10.1101/2021.01.27.428282:
These are yes or no findings as the source states them, for the method shown. In cells and extracts the contact can be indirect. Some entries that bind do so weakly or less than the wild type.

Sequences of proteins named here, by UniProt entry; tags and fusion partners are left off.
UniProt Q12888: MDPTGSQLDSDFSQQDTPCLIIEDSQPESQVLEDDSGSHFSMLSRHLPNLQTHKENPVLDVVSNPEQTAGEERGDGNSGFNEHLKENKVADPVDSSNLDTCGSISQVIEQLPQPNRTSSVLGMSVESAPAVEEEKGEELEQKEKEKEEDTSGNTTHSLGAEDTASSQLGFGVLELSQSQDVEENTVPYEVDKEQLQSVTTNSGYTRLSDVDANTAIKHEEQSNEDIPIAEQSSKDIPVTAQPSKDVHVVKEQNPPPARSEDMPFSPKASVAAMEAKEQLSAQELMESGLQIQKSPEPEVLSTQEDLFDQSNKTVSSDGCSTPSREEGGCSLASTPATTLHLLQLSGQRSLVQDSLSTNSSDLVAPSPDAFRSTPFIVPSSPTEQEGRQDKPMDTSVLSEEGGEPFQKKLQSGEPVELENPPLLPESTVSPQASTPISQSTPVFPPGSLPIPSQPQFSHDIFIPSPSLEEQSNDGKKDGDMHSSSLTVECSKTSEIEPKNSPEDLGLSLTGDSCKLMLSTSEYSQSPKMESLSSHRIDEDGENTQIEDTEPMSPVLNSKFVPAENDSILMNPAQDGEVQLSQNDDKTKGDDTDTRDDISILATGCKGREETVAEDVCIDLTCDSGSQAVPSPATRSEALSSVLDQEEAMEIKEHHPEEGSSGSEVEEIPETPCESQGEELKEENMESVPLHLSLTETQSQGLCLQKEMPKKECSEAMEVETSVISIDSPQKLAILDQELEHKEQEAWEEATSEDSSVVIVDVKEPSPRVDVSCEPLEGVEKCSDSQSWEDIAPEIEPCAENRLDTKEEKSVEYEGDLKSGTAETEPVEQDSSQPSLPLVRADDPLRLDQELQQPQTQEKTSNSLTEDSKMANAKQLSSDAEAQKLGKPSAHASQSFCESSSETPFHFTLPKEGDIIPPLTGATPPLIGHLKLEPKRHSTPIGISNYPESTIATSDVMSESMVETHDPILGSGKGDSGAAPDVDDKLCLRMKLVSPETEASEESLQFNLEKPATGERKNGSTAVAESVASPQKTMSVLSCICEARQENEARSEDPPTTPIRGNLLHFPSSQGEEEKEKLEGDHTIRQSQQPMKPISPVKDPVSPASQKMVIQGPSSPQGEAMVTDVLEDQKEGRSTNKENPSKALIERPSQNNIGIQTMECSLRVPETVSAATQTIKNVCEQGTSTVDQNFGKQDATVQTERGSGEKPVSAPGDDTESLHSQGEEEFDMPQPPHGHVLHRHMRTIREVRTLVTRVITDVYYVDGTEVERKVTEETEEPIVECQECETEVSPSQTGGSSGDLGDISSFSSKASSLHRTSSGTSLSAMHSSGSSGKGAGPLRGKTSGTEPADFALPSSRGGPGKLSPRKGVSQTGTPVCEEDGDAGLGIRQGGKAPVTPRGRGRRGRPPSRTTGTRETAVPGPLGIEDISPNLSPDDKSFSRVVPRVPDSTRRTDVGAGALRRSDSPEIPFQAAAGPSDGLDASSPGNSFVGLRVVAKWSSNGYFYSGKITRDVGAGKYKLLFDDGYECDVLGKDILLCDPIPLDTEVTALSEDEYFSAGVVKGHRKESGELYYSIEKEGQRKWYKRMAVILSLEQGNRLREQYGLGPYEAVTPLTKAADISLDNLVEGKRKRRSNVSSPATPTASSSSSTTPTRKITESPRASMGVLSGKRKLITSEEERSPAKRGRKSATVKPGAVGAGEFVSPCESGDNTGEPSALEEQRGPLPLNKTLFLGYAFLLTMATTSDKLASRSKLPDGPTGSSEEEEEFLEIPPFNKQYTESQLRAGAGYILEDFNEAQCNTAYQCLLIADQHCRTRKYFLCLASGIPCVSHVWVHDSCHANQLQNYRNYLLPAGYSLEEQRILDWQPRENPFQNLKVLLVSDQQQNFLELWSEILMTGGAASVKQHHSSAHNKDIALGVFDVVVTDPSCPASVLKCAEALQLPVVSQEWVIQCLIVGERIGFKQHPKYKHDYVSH

How the values were obtained:
tGFP-53BP1 = tGFP-53BP1 (UniProt Q12888); assay: co-IP
MYC-53BP1 = MYC-53BP1 (UniProt Q12888); assay: co-IP

binding (tGFP-53BP1) | binding (MYC-53BP1) | Binder
binds |  | USP47, endogenous (enzyme, UniProt Q96K76 1-1375) MVPGEENQLVPKEDVFWRCRQNIFDEMKKKFLQIENAAEEPRVLCIIQDTTNSKTVNERITLNLPASTPVRKLFEDVANKVGYINGTFDLVWGNGINTADMAPLDHTSDKSLLDANFEPGKKNFLHLTDKDGEQPQILLEDSSAGEDSVHDRFIGPLPREGSGGSTSDYVSQSYSYSSILNKSETGYVGLVNQAMTCYLNSLLQTLFMTPEFRNALYKWEFEESEEDPVTSIPYQLQRLFVLLQTSKKRAIETTDVTRSFGWDSSEAWQQHDVQELCRVMFDALEQKWKQTEQADLINELYQGKLKDYVRCLECGYEGWRIDTYLDIPLVIRPYGSSQAFASVEEALHAFIQPEILDGPNQYFCERCKKKCDARKGLRFLHFPYLLTLQLKRFDFDYTTMHRIKLNDRMTFPEELDMSTFIDVEDEKSPQTESCTDSGAENEGSCHSDQMSNDFSNDDGVDEGICLETNSGTEKISKSGLEKNSLIYELFSVMVHSGSAAGGHYYACIKSFSDEQWYSFNDQHVSRITQEDIKKTHGGSSGSRGYYSSAFASSTNAYMLIYRLKDPARNAKFLEVDEYPEHIKNLVQKERELEEQEKRQREIERNTCKIKLFCLHPTKQVMMENKLEVHKDKTLKEAVEMAYKMMDLEEVIPLDCCRLVKYDEFHDYLERSYEGEEDTPMGLLLGGVKSTYMFDLLLETRKPDQVFQSYKPGEVMVKVHVVDLKAESVAAPITVRAYLNQTVTEFKQLISKAIHLPAETMRIVLERCYNDLRLLSVSSKTLKAEGFFRSNKVFVESSETLDYQMAFADSHLWKLLDRHANTIRLFVLLPEQSPVSYSKRTAYQKAGGDSGNVDDDCERVKGPVGSLKSVEAILEESTEKLKSLSLQQQQDGDNGDSSKSTETSDFENIESPLNERDSSASVDNRELEQHIQTSDPENFQSEERSDSDVNNDRSTSSVDSDILSSSHSSDTLCNADNAQIPLANGLDSHSITSSRRTKANEGKKETWDTAEEDSGTDSEYDESGKSRGEMQYMYFKAEPYAADEGSGEGHKWLMVHVDKRITLAAFKQHLEPFVGVLSSHFKVFRVYASNQEFESVRLNETLSSFSDDNKITIRLGRALKKGEYRVKVYQLLVNEQEPCKFLLDAVFAKGMTVRQSKEELIPQLREQCGLELSIDRFRLRKKTWKNPGTVFLDYHIYEEDINISSNWEVFLEVLDGVEKMKSMSQLAVLSRRWKPSEMKLDPFQEVVLESSSVDELREKLSEISGIPLDDIEFAKGRGTFPCDISVLDIHQDLDWNPKVSTLNVWPLYICDDGAVIFYRDKTEELMELTDEQRNELMKKESSRLQKTGHRVTYSPRKEKALKIYLDGAPNKDLTQD
 | binds | DNA ligase III (enzyme, UniProt P49916 43-1009) LLHGHPLFLRRKPVLSFQGSHLRSRATYLVFLPGLHVGLCSGPCEMAEQRFCVDYAKRGTAGCKKCKEKIVKGVCRIGKVVPNPFSESGGDMKEWYHIKCMFEKLERARATTKKIEDLTELEGWEELEDNEKEQITQHIADLSSKAAGTPKKKAVVQAKLTTTGQVTSPVKGASFVTSTNPRKFSGFSAKPNNSGEAPSSPTPKRSLSSSKCDPRHKDCLLREFRKLCAMVADNPSYNTKTQIIQDFLRKGSAGDGFHGDVYLTVKLLLPGVIKTVYNLNDKQIVKLFSRIFNCNPDDMARDLEQGDVSETIRVFFEQSKSFPPAAKSLLTIQEVDEFLLRLSKLTKEDEQQQALQDIASRCTANDLKCIIRLIKHDLKMNSGAKHVLDALDPNAYEAFKASRNLQDVVERVLHNAQEVEKEPGQRRALSVQASLMTPVQPMLAEACKSVEYAMKKCPNGMFSEIKYDGERVQVHKNGDHFSYFSRSLKPVLPHKVAHFKDYIPQAFPGGHSMILDSEVLLIDNKTGKPLPFGTLGVHKKAAFQDANVCLFVFDCIYFNDVSLMDRPLCERRKFLHDNMVEIPNRIMFSEMKRVTKALDLADMITRVIQEGLEGLVLKDVKGTYEPGKRHWLKVKKDYLNEGAMADTADLVVLGAFYGQGSKGGMMSIFLMGCYDPGSQKWCTVTKCAGGHDDATLARLQNELDMVKISKDPSKIPSWLKVNKIYYPDFIVPDPKKAAVWEITGAEFSKSEAHTADGISIRFPRCTRIRDDKDWKSATNLPQLKELYQLSKEKADFTVVAGDEGSSTTGGSSEENKGPSGSAVSRKAPSKPSASTKKAEGKLSNSNSKDGNMQTAKPSAMKVGEKLATKSSPVKVGEKRKAADETLCQTKVLLDIFTGVRLYLPPSTPDFSRLRRYFVAFDGDLVQEFDMTSATHVLGSRDKNPAAQQVSPEWIWACIRKRRLVAPC
